Experimental data: PubChem BioAssay AID652243 (Drosophila RNAi Screening Center, 2013)
The deposit covers about 24,000 reagents; below is a random part of those that have a named target and a result. In the full data, 246 (1%) are marked active. 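Plates not normalised; calls are printed but the firefly/Renilla ratio behind them is not deposited; fold cut for lowering reported inconsistently.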 Raw values are not corrected between plates. Reagent sequences are not shown. Not stated in the record: the amount of reagent.

Purpose: 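Fly genes required for human androgen receptor driven transcription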 (primary screen)
Cell system: Drosophila S2R+ cells
Knock-down reagent: long dsRNA against Drosophila genes
Time to read-out: 72 h (48 h, then 24 h hormone)
Treatment: synthetic androgen R1881 at 10 nM for 24 h
Measurement: 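Per-well raw luminescence of the androgen-driven firefly reporter and of the Renilla control, two replicates each, without normalisation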
Reading the numbers: firefly reporter light: higher = more light from androgen-responsive reporter; Renilla control light: higher = more constitutive control signal (cell number, transfection)
Rule for the call: 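Across duplicate plates, a knock-down whose log firefly/Renilla ratio shifted a set fold down or up from the GFP/LacZ control mean was a hit; the downward cut appears as both 1.5 and 3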
Calls: active = hit: reporter lowered or raised; inactive = no hit

no.	gene	DRSC id	firefly reporter light, replicate 1	firefly reporter light, replicate 2	Renilla control light, replicate 1	Renilla control light, replicate 2	Call
1	h-cup	DRSC15973	84504	32510	6.11e5	3.51e5	inactive
2	h-cup	DRSC24713	7.14e5	6.81e5	7.37e5	9.23e5	inactive
3	lncRNA:CR32553	DRSC19229	7.94e5	9.08e5	1.10e6	9.36e5	inactive
4	Tim17b	DRSC37747	7.29e5	7.70e5	1.89e6	2.00e6	inactive
5	CG5539	DRSC04510	1.56e5	1.39e5	1.64e6	1.15e6	inactive
6	sa	DRSC11649	5.09e5	5.17e5	3.21e6	3.16e6	inactive
7	Pak	DRSC12602	20464	20612	1.69e5	1.20e5	inactive
8	Pak	DRSC23302	5.13e5	5.70e5	1.31e6	1.45e6	inactive
9	Pak	DRSC36687					inactive
10	Pak	DRSC36688					inactive
11	Grx5	DRSC19593	4.00e5	2.73e5	3.76e6	2.31e6	inactive
12	CG2256	DRSC18220	3.89e5	4.30e5	2.79e6	3.43e6	inactive
13	CG2256	DRSC28187	5.29e5	4.58e5	1.82e6	1.56e6	inactive
14	Csk	DRSC12861	1.06e5	51842	1.56e5	1.30e5	inactive
15	Csk	DRSC23272	7.98e5	5.43e5	1.38e5	1.01e5	inactive
16	Csk	DRSC26697	2.47e5	2.62e5	5.98e5	5.70e5	inactive
17	Csk	DRSC36921					inactive
18	Csk	DRSC36922					inactive
19	Mid1	DRSC04231	4.54e5	4.40e5	2.29e6	2.88e6	inactive
20	Mid1	DRSC04308	57342	51697	1.30e6	1.43e6	inactive
21	Mid1	DRSC22773	3.95e5	5.26e5	5.81e5	6.75e5	inactive
22	Mid1	DRSC22803	3.72e5	9.09e5	1.24e6	2.48e6	inactive
23	Mid1	DRSC25509	8.02e5	7.02e5	9.08e5	7.32e5	inactive
24	Mid1	DRSC28634	3.43e5	3.72e5	1.36e6	1.10e6	inactive
25	Ca-Ma2d	DRSC29730	5.69e5	4.91e5	1.67e6	1.81e6	inactive
26	Cpr49Ac	DRSC07199	8.24e5	6.21e5	2.46e6	1.96e6	inactive
27	Ir52a	DRSC06262	74240	83473	1.36e6	1.36e6	inactive
28	CG11619	DRSC09849	3.19e5	1.99e5	2.42e6	2.50e6	inactive
29	CG16772	DRSC02516	1.48e5	1.84e5	2.03e6	2.42e6	inactive
30	CG16772	DRSC25947	3.31e5	3.52e5	9.84e5	8.61e5	inactive
31	loj	DRSC09791	9.07e5	7.77e5	1.42e6	1.29e6	inactive
32	CG9760	DRSC11101	1.91e5	1.57e5	2.58e6	2.31e6	inactive
33	CG9760	DRSC28846	7.19e5	7.81e5	6.78e5	8.30e5	inactive
34	CG32473	DRSC14352	83678	1.71e5	1.52e6	3.02e6	inactive
35	CG32473	DRSC16446	1.12e5	75249	1.04e6	8.48e5	inactive
36	lap	DRSC12628	1.31e5	99823	4.80e5	4.84e5	inactive
37	lap	DRSC28215	8.57e5	1.40e6	1.45e6	1.76e6	inactive
38	ste24b	DRSC07315	75503	81924	1.54e6	1.54e6	inactive
39	ste24b	DRSC24340	7.02e5	6.63e5	7.61e5	1.19e6	inactive
40	prim	DRSC06575	1.10e5	1.25e5	1.71e6	1.71e6	inactive
41	GMF	DRSC01928	1.09e6	1.21e6	1.51e6	2.92e6	inactive
42	PH4alphaEFB	DRSC14473	60891	58660	6.60e5	4.40e5	inactive
43	PH4alphaEFB	DRSC14950	1.34e5	1.94e5	1.55e6	2.10e6	inactive
44	MSBP	DRSC20146	1.54e5	1.31e5	8.02e5	9.86e5	inactive
45	CG9662	DRSC00723	1.37e5	1.07e5	9.40e5	1.14e6	inactive
46	Slc25A46b	DRSC02888	1.33e5	1.33e5	1.16e6	1.70e6	inactive
47	CG3919	DRSC10389	8.36e5	5.09e5	2.27e6	2.33e6	inactive
48	CG14258	DRSC14753	1.86e5	2.07e5	2.78e6	3.07e6	inactive
49	RpL37A	DRSC02899	62547	62214	6.61e5	4.69e5	inactive
50	RpL37A	DRSC25051	3.60e5	2.28e5	9.16e5	3.60e5	inactive
51	kmg	DRSC02829	2.25e5	2.28e5	1.25e6	1.17e6	inactive
52	Nadk1b	DRSC06964	9.63e5	9.21e5	2.43e6	2.66e6	inactive
53	Nadk1b	DRSC06965	66798	1.15e5	1.98e6	1.98e6	inactive
54	Nadk1b	DRSC25741	8.13e5	7.59e5	1.31e6	1.45e6	inactive
55	CG9313	DRSC04540	6.70e5	7.12e5	1.87e6	1.59e6	inactive
56	CG9313	DRSC27041	3.05e5	2.29e5	5.46e5	4.21e5	inactive
57	twit	DRSC03210	1.26e6	4.26e5	3.21e6	1.22e6	inactive
58	twit	DRSC30028	4.35e5	4.43e5	1.01e6	1.29e6	inactive

Targets above whose target name starts with H or h (2):
gene	DRSC id	firefly reporter light, replicate 1	firefly reporter light, replicate 2	Renilla control light, replicate 1	Renilla control light, replicate 2	Call
h-cup	DRSC15973	84504	32510	6.11e5	3.51e5	inactive
h-cup	DRSC24713	7.14e5	6.81e5	7.37e5	9.23e5	inactive
